In the assay the target is T1, HA-tagged syntaxin5 (human) (UniProt Q13190).
T1 sequence: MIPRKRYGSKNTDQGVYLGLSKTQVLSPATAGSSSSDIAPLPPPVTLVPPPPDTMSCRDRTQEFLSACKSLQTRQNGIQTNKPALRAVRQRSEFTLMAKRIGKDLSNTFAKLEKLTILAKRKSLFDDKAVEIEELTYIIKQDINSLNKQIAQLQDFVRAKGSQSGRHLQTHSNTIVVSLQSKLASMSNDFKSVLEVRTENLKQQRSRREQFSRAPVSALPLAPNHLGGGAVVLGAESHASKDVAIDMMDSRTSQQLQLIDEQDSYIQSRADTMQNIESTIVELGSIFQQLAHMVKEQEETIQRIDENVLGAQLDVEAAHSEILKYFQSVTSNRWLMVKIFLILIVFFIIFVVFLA
Description: co-IP; HeLa cells transiently transfected with pcDNA3.1-HA-STX5, noninfected or infected with wild-type S. Typhimurium, ΔsptP, or ΔsptP pSPTP; HA-syntaxin5 immunoprecipitated with anti-HA on protein G Sepharose; immunoblot for HA and VCP in bound and unbound fractions. On the technique in general: A western blot detects proteins with antibodies after separation by electrophoresis.

No constants are given. Whether binding was seen depends on the method and setting. Binding seen in cells or lysates may run through a third protein. Some binding calls cover weakened binding; strength is not graded here. Where a sequence is shown, tags or fusion partners need not be part of it.

Consider “VCP, endogenous in HeLa cells (from UniProt P55072 1-806)”, for which the binding entry is “binds”.

These data come from article PMC2724103.
